Assay results as given in article doi:10.1101/317834.

By UniProt entry, the sequences of proteins in these tests, tags left out. Where a name states a change or a piece, a line headed by the entry shows the natural chain unless it says otherwise.
UniProt Q2LKW6: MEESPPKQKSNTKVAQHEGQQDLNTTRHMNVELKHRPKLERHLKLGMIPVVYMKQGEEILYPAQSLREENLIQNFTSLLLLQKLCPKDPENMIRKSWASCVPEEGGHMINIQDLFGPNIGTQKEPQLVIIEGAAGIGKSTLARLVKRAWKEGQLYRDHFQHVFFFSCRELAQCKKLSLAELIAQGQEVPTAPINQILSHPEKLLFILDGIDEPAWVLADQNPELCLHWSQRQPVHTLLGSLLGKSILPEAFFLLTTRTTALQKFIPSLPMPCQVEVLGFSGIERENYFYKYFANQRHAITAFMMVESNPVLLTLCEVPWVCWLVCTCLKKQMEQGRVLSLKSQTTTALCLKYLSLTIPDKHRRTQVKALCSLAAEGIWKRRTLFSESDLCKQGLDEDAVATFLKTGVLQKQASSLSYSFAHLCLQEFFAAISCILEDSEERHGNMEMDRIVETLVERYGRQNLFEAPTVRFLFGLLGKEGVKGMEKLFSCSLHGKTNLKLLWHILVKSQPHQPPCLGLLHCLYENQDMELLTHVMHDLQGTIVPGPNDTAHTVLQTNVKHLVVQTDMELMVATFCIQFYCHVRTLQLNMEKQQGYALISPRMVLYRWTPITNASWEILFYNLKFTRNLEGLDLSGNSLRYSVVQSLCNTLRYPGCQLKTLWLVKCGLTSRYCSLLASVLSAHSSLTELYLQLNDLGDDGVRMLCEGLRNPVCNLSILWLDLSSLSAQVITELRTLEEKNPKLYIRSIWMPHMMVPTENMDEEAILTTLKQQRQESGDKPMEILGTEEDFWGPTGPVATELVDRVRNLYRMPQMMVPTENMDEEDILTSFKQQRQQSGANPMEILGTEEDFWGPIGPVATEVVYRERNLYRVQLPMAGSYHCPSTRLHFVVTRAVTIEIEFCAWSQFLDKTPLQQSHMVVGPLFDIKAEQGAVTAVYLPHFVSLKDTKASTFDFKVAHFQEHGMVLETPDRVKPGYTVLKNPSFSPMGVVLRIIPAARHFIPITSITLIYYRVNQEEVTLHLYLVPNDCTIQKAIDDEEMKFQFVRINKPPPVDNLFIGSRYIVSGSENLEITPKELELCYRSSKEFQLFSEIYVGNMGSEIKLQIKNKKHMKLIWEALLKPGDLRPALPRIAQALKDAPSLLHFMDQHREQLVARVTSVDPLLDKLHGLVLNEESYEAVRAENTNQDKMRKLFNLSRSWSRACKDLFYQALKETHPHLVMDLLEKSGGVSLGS

The substances below were run against T1, Caspase-1 (UniProt P29452) (assay: co-IP).
T1 sequence: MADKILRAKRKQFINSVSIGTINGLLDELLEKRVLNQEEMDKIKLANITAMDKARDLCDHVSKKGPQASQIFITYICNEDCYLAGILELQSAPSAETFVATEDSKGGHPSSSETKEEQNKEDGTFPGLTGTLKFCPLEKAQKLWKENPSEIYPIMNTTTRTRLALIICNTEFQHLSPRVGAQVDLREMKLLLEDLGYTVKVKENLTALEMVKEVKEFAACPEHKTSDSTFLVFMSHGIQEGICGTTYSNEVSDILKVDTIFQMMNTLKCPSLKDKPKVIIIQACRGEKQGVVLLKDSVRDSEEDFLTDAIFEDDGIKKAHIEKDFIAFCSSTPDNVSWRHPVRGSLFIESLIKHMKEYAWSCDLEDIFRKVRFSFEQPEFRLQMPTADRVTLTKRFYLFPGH

Row | binding | Substance
1 | no binding | NLRP1B CARD domain (1143-1233) (from UniProt Q2LKW6) (domain or fragment)
2 | binds | NLRP1B FIIND(UPA)-CARD fragment (986-1233) (from UniProt Q2LKW6) (domain or fragment)
3 | no binding | NLRP1B FIIND(UPA)-CARD truncation (1124-1233) (from UniProt Q2LKW6) (domain or fragment)
4 | no binding | NLRP1B full length FIIND(ZU5+UPA)-CARD (745-1233) (from UniProt Q2LKW6) (domain or fragment)

These are yes or no findings as the source states them, for the method shown. Binding seen in cells or lysates may run through a third protein. A result given as binding can be weak or reduced; the word gives no strength.
